Data on one molecule can be found in PMC9854190.

No constants are given. Whether binding was seen depends on the method and setting. Binding seen in cells or lysates may run through a third protein. For some assays here: Binding can be weak; no strength is given. Sequences can lack the tags named with a protein.

The target in assay [1] is FLAG-arrestin3. The assay is described as follows: co-IP; HEK-293 cells expressing D3R, transfected; treated with vehicle, 30 nM DA or 100 nM quinpirole (once or washed and re-challenged, desensitization protocol); also Con-KD and Mdm2-KD cells; RIPA lysates, anti-M2 FLAG agarose beads overnight at 4 °C; co-IP blotted for HA or importin β1.
In assay [2] the target is FLAG-arrestin3. Kind of assay: condition: only cells pretreated with 100 nM triciribine for 30 min; co-IP; HEK-293 cells expressing D3R, transfected with FLAG-arrestin3 and HA-USP33; pretreated with 100 nM triciribine (Akt inhibitor) for 30 min, then desensitization induced; FLAG beads; co-IP blotted for HA.

B1: HA-USP33 (ubiquitin-specific protease 33) (enzyme, UniProt Q8TEY7-2 1-911)
chain: MSAFRNHCPHLDSVGEITKEDLIQKSLGTCQDCKVQGPNLWACLENRCSYVGCGESQVDHSTIHSQETKHYLTVNLTTLRVWCYACSKEVFLDRKLGTQPSLPHVRQPHQIQENSVQDFKIPSNTTLKTPLVAVFDDLDIEADEEDELRARGLTGLKNIGNTCYMNAALQALSNCPPLTQFFLDCGGLARTDKKPAICKSYLKLMTELWHKSRPGSVVPTTLFQGIKTVNPTFRGYSQQDAQEFLRCLMDLLHEELKEQVMEVEEDPQTITTEETMEEDKSQSDVDFQSCESCSNSDRAENENGSRCFSEDNNETTMLIQDDENNSEMSKDWQKEKMCNKINKVNSEGEFDKDRDSISETVDLNNQETVKVQIHSRASEYITDVHSNDLSTPQILPSNEGVNPRLSASPPKSGNLWPGLAPPHKKAQSASPKRKKQHKKYRSVISDIFDGTIISSVQCLTCDRVSVTLETFQDLSLPIPGKEDLAKLHSSSHPTSIVKAGSCGEAYAPQGWIAFFMEYVKRFVVSCVPSWFWGPVVTLQDCLAAFFARDELKGDNMYSCEKCKKLRNGVKFCKVQNFPEILCIHLKRFRHELMFSTKISTHVSFPLEGLDLQPFLAKDSPAQIVTYDLLSVICHHGTASSGHYIAYCRNNLNNLWYEFDDQSVTEVSESTVQNAEAYVLFYRKSSEEAQKERRRISNLLNIMEPSLLQFYISRQWLNKFKTFAEPGPISNNDFLCIHGGVPPRKAGYIEDLVLMLPQNIWDNLYSRYGGGPAVNHLYICHTCQIEAEKIEKRRKTELEIFIRLNRAFQKEDSPATFYCISMQWFREWESFVKGKDGDPPGPIDNTKIAVTKCGNVMLRQGADSGQISEETWNFLQSIYGGGPEVILRPPVVHVDPDILQAEEKIEVETRSL
As to B1, the figures for the binding result in assay [1] and in assay [2] were “binds” and “no binding”, respectively.
